Values from PubChem BioAssay AID1224830 (NIAID, 2016)

Assay: 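Regulators of TLR4 signalling towards TNF-alpha in macrophage-like cells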 (primary screen)
System: human THP-1 monocytic leukaemia cells, TNF dual-luciferase reporter clone, PMA-differentiated to macrophage-like cells
Reagent: siRNA pool against human genes, 50 nM
Timing: LPS for 4 h, given about 3 days after siRNA transfection
Challenge: bacterial LPS (TLR4 ligand), 10 ng/ml
Measurement: 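TNF firefly reporter luminescence divided by renilla, normalised to the plate median, then turned into a robust z-score for each replicate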
Scale: TNF reporter robust z-score: higher = stronger TNF reporter response to LPS
Call rule: 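a well is active when its z-score exceeds 2.8 or falls below -1.5; control wells carry no call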
In all, the deposit lists about 18,000 reagents; below is a random part of them. In the full data, about 2,900 (16%) got an active call. 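Calls are made per well; low scores hint the gene aids the LPS response, high scores that it dampens it.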 Repeated entries: four replicate wells of each siRNA pool.

For SLCO4A1, how do the results read?
TNF reporter robust z-score: -0.51; Outcome: inactive

What did the screen give for SLCO4A1?
TNF reporter robust z-score: -0.79; Outcome: inactive

What is on record for SLCO4A1?
TNF reporter robust z-score: -0.22; Outcome: inactive

Which result is listed for SLCO4A1?
TNF reporter robust z-score: 0.35; Outcome: inactive

With DACH1, what does the deposit list?
TNF reporter robust z-score: -0.38; Outcome: inactive

For DACH1, how do the results read?
TNF reporter robust z-score: -0.64; Outcome: inactive

What is on record for DACH1?
TNF reporter robust z-score: -1.68; Outcome: active

For DACH1, how do the results read?
TNF reporter robust z-score: -0.57; Outcome: inactive

For AKAP17A, how do the results read?
TNF reporter robust z-score: -1.62; Outcome: active

For AKAP17A, what was measured?
TNF reporter robust z-score: -1.57; Outcome: active

How did the screen score AKAP17A?
TNF reporter robust z-score: -0.59; Outcome: inactive

How did the screen score AKAP17A?
TNF reporter robust z-score: -0.49; Outcome: inactive

What is on record for INHBB?
TNF reporter robust z-score: -0.02; Outcome: inactive

What is on record for INHBB?
TNF reporter robust z-score: 0.05; Outcome: inactive

With INHBB, how do the results read?
TNF reporter robust z-score: -0.39; Outcome: inactive

Which result is listed for INHBB?
TNF reporter robust z-score: -0.18; Outcome: inactive

For FIGLA, what does the deposit list?
TNF reporter robust z-score: 3.74; Outcome: active

Which result is listed for FIGLA?
TNF reporter robust z-score: 3.13; Outcome: active

How did the screen score FIGLA?
TNF reporter robust z-score: -0.18; Outcome: inactive

For FIGLA, how do the results read?
TNF reporter robust z-score: -0.25; Outcome: inactive

With MAGEA9, what was measured?
TNF reporter robust z-score: -1.18; Outcome: inactive

For MAGEA9, how do the results read?
TNF reporter robust z-score: 0.88; Outcome: inactive

How did the screen score MAGEA9?
TNF reporter robust z-score: 0.42; Outcome: inactive

What is on record for MAGEA9?
TNF reporter robust z-score: 0.16; Outcome: inactive

Which result is listed for SYT4?
TNF reporter robust z-score: -0.35; Outcome: inactive

With SYT4, how do the results read?
TNF reporter robust z-score: 0.13; Outcome: inactive

Which result is listed for SYT4?
TNF reporter robust z-score: -0.21; Outcome: inactive

Which result is listed for SYT4?
TNF reporter robust z-score: 0.85; Outcome: inactive

For MROH2B, how do the results read?
TNF reporter robust z-score: -0.02; Outcome: inactive

With MROH2B, what was measured?
TNF reporter robust z-score: -0.25; Outcome: inactive

What did the screen give for MROH2B?
TNF reporter robust z-score: -0.15; Outcome: inactive

With MROH2B, what was measured?
TNF reporter robust z-score: 0.89; Outcome: inactive

Which result is listed for FMR1NB?
TNF reporter robust z-score: 1.5; Outcome: inactive

For FMR1NB, what was measured?
TNF reporter robust z-score: 2.51; Outcome: inactive

With FMR1NB, how do the results read?
TNF reporter robust z-score: 1.95; Outcome: inactive

With FMR1NB, what does the deposit list?
TNF reporter robust z-score: -0.25; Outcome: inactive

With HSP90AB1, what does the deposit list?
TNF reporter robust z-score: 0.39; Outcome: inactive

What did the screen give for HSP90AB1?
TNF reporter robust z-score: 0.43; Outcome: inactive

What is on record for HSP90AB1?
TNF reporter robust z-score: -0.06; Outcome: inactive

With HSP90AB1, how do the results read?
TNF reporter robust z-score: 0.27; Outcome: inactive

For PRMT2, what does the deposit list?
TNF reporter robust z-score: 1.95; Outcome: inactive

For PRMT2, what was measured?
TNF reporter robust z-score: 1.06; Outcome: inactive

Which result is listed for PRMT2?
TNF reporter robust z-score: 0.78; Outcome: inactive

For PRMT2, what does the deposit list?
TNF reporter robust z-score: 1.08; Outcome: inactive

With TIMM50, how do the results read?
TNF reporter robust z-score: -0.59; Outcome: inactive

With TIMM50, what was measured?
TNF reporter robust z-score: 1.62; Outcome: inactive

With TIMM50, how do the results read?
TNF reporter robust z-score: -0.23; Outcome: inactive

What did the screen give for TIMM50?
TNF reporter robust z-score: -0.84; Outcome: inactive
